# PubChem BioAssay AID588590 (National Center for Advancing Translational Sciences (NCATS), 2011)
# Sequences of proteins named here, by UniProt entry; tags and fusion partners are left off. A change or cut given only in a name is not applied to a line headed by its entry.
# UniProt Q9UNA4: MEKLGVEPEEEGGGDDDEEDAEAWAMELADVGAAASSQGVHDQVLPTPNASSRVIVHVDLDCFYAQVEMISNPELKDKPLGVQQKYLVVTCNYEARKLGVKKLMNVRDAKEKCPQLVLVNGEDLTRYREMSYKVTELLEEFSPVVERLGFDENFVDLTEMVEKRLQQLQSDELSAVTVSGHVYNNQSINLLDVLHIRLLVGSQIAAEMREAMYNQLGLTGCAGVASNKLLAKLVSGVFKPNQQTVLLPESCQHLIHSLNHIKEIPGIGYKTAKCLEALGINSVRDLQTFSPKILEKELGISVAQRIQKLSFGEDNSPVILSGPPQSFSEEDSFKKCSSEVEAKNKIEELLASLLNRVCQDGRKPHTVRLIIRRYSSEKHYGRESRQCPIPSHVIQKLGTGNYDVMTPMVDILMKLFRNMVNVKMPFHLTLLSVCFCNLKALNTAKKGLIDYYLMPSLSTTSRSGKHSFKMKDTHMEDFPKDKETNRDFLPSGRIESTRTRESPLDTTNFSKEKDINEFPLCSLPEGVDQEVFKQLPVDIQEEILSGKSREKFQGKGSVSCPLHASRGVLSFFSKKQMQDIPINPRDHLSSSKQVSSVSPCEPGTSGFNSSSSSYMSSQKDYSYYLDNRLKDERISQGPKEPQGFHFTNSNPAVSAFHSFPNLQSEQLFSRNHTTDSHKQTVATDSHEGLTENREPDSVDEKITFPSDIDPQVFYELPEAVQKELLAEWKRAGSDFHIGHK
# The campaign covered roughly 390,000 compounds. About 4,000 (1%) were called active. This list was built around the results that the source calls inconclusive (neither active nor inactive); the mix of calls is not that of the screen. The call rests on the fitted dose curve; in most records, active means well fitted inhibition curve with a large enough effect; inconclusive means small, poorly fitted or top-dose-only effect, or another doubt; inactive means no such curve, though single readings can be large or run the other way. Potencies beside an inconclusive call are fits to weak or partial responses and may not hold up.
# Molecular target: DNA polymerase iota (Homo sapiens) (UniProt Q9UNA4)
# Experiment: qHTS for Inhibitors of Polymerase Iota
# Conditions: Pol iota fluorescent replication assay, 10 min; series mostly up to 115 µM
# Outline: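 Fluorescent replication assay read twice, at 0 min and 10 min after adding 50 nM (final) substrate. Enzyme (10 nM) and compounds were first incubated 15 min at room temperature; enzyme-free buffer wells were negative controls.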
# Potency means the concentration at half of the fitted maximal effect.
row,Structure (SMILES),Potency
1,O=C(NCC12CC3CC(CC(C3)C1)C2)c1cc2nc(-c3ccc(Cl)cc3)cc(C(F)(F)F)n2n1,"inconclusive: 39.8 µM [inhibitor, single point]"
2,Cc1ccc(S(=O)(=O)N2CCC(C(=O)NCCCN3CCCC3=O)CC2)cc1C,"inconclusive: 89.1 µM [inhibitor, single point]"
3,CC(Cl)C(=O)c1ccc2c(c1)CCN2C(=O)C1CC1 (stereo unspecified),"inconclusive: 28.2 µM [inhibitor, full curve, poor fit]"
4,COc1cc2c(cc1NC(=O)CC1SC(N3CCCC3)=NC1=O)oc1ccccc12 (stereo unspecified),"inconclusive: 79.4 µM [inhibitor, single point]"
5,COc1cccc(/C=C/C(=C2\C(=O)N(c3ccccc3)N=C2C)c2ccc(Br)cc2)c1OC,"inconclusive: 100 µM [inhibitor, single point]"
6,Cc1cc(O)c(C(c2cccc(F)c2)N2CCC(C)CC2)c(=O)n1Cc1ccco1 (stereo unspecified),inactive
7,CCOCCCNC(=O)c1c(-c2ccccc2)noc1C,"inconclusive: 2 µM [inhibitor, partial curve, poor fit]"
8,COc1ccc([C@H]2CC(=O)C=C(c3cccc(Cl)c3)C2)cc1,"inconclusive: 89.1 µM [inhibitor, single point]"
9,C=C1CCC[C@]2(C)C[C@H]3OC(=O)C(CN(C)CC(OC)OC)[C@H]3CC12 (stereo partly specified),inactive
10,CC(=O)c1cc(-c2ccccc2)n(CC(=O)NC2CCCCCC2)c1C,"inconclusive: 100 µM [inhibitor, single point]"
11,COc1ccccc1NC(=O)CCN1CCC(C(N)=O)CC1,inactive
12,O=C(CCN1C(=O)[C@H]2CC=CC[C@H]2C1=O)NCc1nc(-c2ccccc2)no1,"inconclusive: 22.4 µM [inhibitor, partial curve, poor fit]"
14,COc1ccc(OC)c(S(=O)(=O)N2CCC(C(=O)NC3CCCCCC3)CC2)c1,"inconclusive: 79.4 µM [inhibitor, partial curve, poor fit]"
15,COc1cc(N(C)C)ccc1/C=C/c1ccnc2ccccc12,inactive
16,O=c1c2c3c(sc2nc2n1CCCCC2)C(O)CCC3 (stereo unspecified),inactive
17,CNC(=O)c1ccc(Nc2nnc(-c3ccc(C)c(S(=O)(=O)NC(C)(C)C)c3)c3ccccc23)cc1,"inconclusive: 89.1 µM [inhibitor, single point]"
18,c1ccc(-c2nn3c(Cn4nnc5ccccc54)nnc3s2)nc1,"inconclusive: 14.1 µM [inhibitor, full curve, poor fit]"
19,Cc1cnc(C(=O)Nc2ccc(F)c(F)c2)cn1,"inconclusive: 39.8 µM [inhibitor, single point]"
20,CCN(c1ccccc1)S(=O)(=O)c1ccc2c(c1)N(C(C)=O)CCO2,"inconclusive: 89.1 µM [inhibitor, single point]"
21,C=CCSc1nnc2nc3c(nn12)c1cc(C)ccc1n3CC=C,"inconclusive: 1.26 µM [inhibitor, full curve, poor fit]"

# 3 compounds out of the list, ordered by formula weight, descending.
row,Structure (SMILES),Potency
17,CNC(=O)c1ccc(Nc2nnc(-c3ccc(C)c(S(=O)(=O)NC(C)(C)C)c3)c3ccccc23)cc1,"inconclusive: 89.1 µM [inhibitor, single point]"
20,CCN(c1ccccc1)S(=O)(=O)c1ccc2c(c1)N(C(C)=O)CCO2,"inconclusive: 89.1 µM [inhibitor, single point]"
11,COc1ccccc1NC(=O)CCN1CCC(C(N)=O)CC1,inactive

# Next results

row,Structure (SMILES),Potency
1,CC(=O)NCC(=O)OCC(=O)N1c2ccccc2Sc2ccccc21,"inconclusive: 89.1 µM [inhibitor, single point]"
2,O=C(Nc1cccc(-c2nc3ncccc3o2)c1)c1ccc(-c2cccc(Cl)c2Cl)o1,"inconclusive: 79.4 µM [inhibitor, single point]"
3,O=C(Nc1ccccc1)c1cc(-c2ccccc2Cl)no1,"inconclusive: 89.1 µM [inhibitor, single point]"
4,COc1ccc(OC)c(CNS(=O)(=O)c2c(C)nc3scc(C)n3c2=O)c1,"inconclusive: 100 µM [inhibitor, partial curve, poor fit]"
5,O=C(OCC(=O)N1N=C(c2ccc(Cl)cc2)CC1c1ccco1)c1cccnc1 (stereo unspecified),"inconclusive: 3.16 µM [inhibitor, full curve, poor fit]"
6,COc1ccc2c(c1)CCc1cc(C(=O)N3CCN(c4ccc(N5CCOCC5)nn4)CC3)sc1-2,"inconclusive: 20 µM [inhibitor, partial curve, poor fit]"
7,CCN(C)c1ccc(/C=C/c2ccnc3ccccc23)cc1,"inconclusive: 79.4 µM [inhibitor, partial curve, poor fit]"
8,CCn1c(SCC(=O)Nc2nccs2)nnc1-c1ccc(S(=O)(=O)N2CCCCCC2)cc1,"inconclusive: 39.8 µM [inhibitor, partial curve, poor fit]"
9,COc1ccccc1-c1sc2ccccc2c1C#CC1(O)CCCCC1,"inconclusive: 35.5 µM [inhibitor, partial curve, poor fit]"
10,COC(=O)C(O)(NC(=O)c1ccncc1)C(F)(F)F (stereo unspecified),"inconclusive: 2 µM [inhibitor, full curve, poor fit]"
11,Cc1ccc(NC(=O)C(=O)NCC(c2cccnc2)N2CCN(Cc3ccccc3)CC2)cc1 (stereo unspecified),inactive
12,CC(=O)Nc1ccc(-c2nnc(SCC(=O)c3ccc([N+](=O)[O-])cc3)o2)cc1,inactive
13,CCOC(=O)c1ccccc1NC(=O)N1CCOc2ccc(Cl)cc21,"inconclusive: 89.1 µM [inhibitor, partial curve, poor fit]"
14,O=S(=O)(NCCN1CCOCC1)c1ccc(Cl)c(Cl)c1,"inconclusive: 14.1 µM [inhibitor, partial curve, poor fit]"
15,Cc1ccc(-c2nn(-c3ccccc3)cc2/C=N/NS(=O)(=O)c2ccccc2)cc1,"inconclusive: 39.8 µM [inhibitor, partial curve]"
16,CSCC(C)N1CCC(n2nccc2NC(=O)c2ccc3c(c2)OCO3)CC1 (stereo unspecified),inactive
17,Cc1ccc(S(=O)(=O)Nc2nc3ccc(N)cc3s2)cc1,"inconclusive: 20 µM [inhibitor, full curve, poor fit]"
18,O=C(NCCS(=O)(=O)N1CCC2(CC1)OCCO2)c1ccccc1,inactive
19,O=C(Nc1cccc(C(=O)O)c1)/C(=C/c1ccc([N+](=O)[O-])cc1)NC(=O)c1ccccc1,inactive
20,Cc1ccc(-n2c(CCc3nc4ccccc4[nH]3)n[nH]c2=S)cc1,inactive
